Drawing on PMC7790825, this text covers binding for four substances.

Chains of the proteins cited; added tags and fusions are not shown.
UniProt P07355: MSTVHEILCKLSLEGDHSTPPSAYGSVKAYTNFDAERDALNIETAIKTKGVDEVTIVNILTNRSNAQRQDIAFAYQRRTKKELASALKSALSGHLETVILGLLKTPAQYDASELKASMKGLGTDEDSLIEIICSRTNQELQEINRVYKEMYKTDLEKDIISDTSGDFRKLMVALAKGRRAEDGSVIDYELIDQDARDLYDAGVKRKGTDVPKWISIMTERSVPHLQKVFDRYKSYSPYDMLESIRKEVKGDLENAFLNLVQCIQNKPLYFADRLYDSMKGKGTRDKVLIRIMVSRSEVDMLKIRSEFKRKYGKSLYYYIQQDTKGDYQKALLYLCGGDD
UniProt P19474: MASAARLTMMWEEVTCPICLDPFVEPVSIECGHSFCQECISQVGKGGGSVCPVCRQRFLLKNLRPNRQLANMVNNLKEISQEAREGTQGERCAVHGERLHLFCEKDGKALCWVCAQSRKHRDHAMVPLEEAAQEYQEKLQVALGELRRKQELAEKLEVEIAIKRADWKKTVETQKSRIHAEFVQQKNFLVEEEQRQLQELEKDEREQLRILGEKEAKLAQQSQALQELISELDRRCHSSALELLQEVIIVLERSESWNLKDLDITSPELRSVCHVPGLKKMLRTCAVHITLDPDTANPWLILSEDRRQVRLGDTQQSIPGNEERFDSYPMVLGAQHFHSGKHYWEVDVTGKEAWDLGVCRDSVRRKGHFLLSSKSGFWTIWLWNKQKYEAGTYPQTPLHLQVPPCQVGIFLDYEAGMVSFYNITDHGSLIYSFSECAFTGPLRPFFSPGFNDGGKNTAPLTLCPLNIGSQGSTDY
UniProt Q14457: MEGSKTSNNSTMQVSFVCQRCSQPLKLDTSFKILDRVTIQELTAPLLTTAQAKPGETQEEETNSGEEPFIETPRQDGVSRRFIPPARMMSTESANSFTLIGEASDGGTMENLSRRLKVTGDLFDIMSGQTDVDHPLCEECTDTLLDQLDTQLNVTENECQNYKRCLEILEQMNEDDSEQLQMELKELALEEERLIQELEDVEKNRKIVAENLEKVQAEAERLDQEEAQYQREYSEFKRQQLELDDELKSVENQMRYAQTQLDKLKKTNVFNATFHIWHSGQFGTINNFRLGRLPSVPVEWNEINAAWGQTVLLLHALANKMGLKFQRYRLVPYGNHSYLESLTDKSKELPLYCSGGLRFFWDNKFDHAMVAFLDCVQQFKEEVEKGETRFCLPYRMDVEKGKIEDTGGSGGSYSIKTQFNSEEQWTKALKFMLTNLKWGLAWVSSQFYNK

No constants are given. Whether binding was seen depends on the method and setting. Binding seen in cells or lysates may run through a third protein. Some results given as binding are weak or reduced against the parent protein; the word gives no strength.

Experiment [1] addresses Annexin A2 (human (endogenous in U2-OS)) (UniProt P07355). Description: co-IP; untransfected U2-OS cells; IP of endogenous ANXA2 with ANXA2 antibody (1 mg total lysate protein, 2 ug antibody), immunoblot. For orientation: Immunoblotting shows a protein as a band on a membrane.
The target in experiment [2] is HA-TRIM21 (tripartite motif containing-21) (UniProt P19474). Description: co-IP; U2-OS cells transfected with HA-vector or HA-TRIM21; IP with HA antibody (1 mg total lysate protein, 2 ug antibody), immunoblot of the immune complexes.
In experiment [3] the target is Annexin A2 (human (endogenous in U2-OS)) (UniProt P07355). Put plainly: co-IP; U2-OS cells stably expressing H125-V or H125-TRIM21, after TET (10 ug/ml); IP with IgG and ANXA2 antibodies, immunoblot.

In the case of “endogenous TRIM21 (tripartite motif containing-21) (from UniProt P19474 1-475)”, the binding entry in experiment [1] is reported as “binds”.
Beclin 1 (from UniProt Q14457 1-450): in experiment [2], the binding entry is on record as “binds”.
With “TRIM21 expressed from H125-TRIM21 (tetracycline-induced) (from UniProt P19474 1-475)”, the binding entry in experiment [3] was “binds”.
As for Annexin A2 (from UniProt P07355 1-339), the binding result in experiment [2] was “binds”.
